Structures were worked out from names or drawings and are uncertain.
Target: DPP-IV from porcine kidney (Sus scrofa, UniProt P22411)
Assay: Measurement of the DPP-IV activity (fluorimetric H-Ala-Pro-AFC conversion)
Conditions: DPP-IV 1 mU/ml; substrate H-Ala-Pro-AFC 15 μM; Tris/HCl 40 mM, pH 7.4; room temperature; tested form: bis-TFA salt
Protocol: The activity of the compounds was assayed as follows:
Measurement of the DPP-IV activity:
DPP-IV from porcine kidney (Sigma, Munich)
H-Ala-Pro-AFC (Bachem, Weil am Rhein)
DPP-IV (1 mU/ml, final concentration)
H-Ala-Pro-AFC (15 μM, final concentration) in Tris/HCl (40 mM, pH 7.4), total volume 0.2 ml
The reaction was carried out at room temperature for various times (typically 10 min) and stopped at the end of the reaction by adding 20 μl of ZnCl2(1M). The H-Ala-Pro-AFC conversion was determined fluorimetrically by measuring the emission at 535 nm after excitation at 405 nm. When inhibitors were added, the added buffer volume was adapted so that a total volume of 200 μl was maintained for the assay mixture.
IC50 values for inhibitors were determined by varying the inhibitor concentrations with the stated substrate concentration of 15 μM. Ki and Km values were found by appropriate variation of substrate concentration and inhibitor concentration as described (Dixon, M. and Webb, E. C. (1979) Enzymes, third edition, pp. 47–206, Academic Press). The values for Km, IC50 and Ki were calculated using a commercially available software package (Leatherbarrow, R. J. (1992) GraFit Version 3.0, Erithacus Software Ltd. Staines, U.K.).

The chains behind the UniProt entries cited, without tags or fusion partners.
UniProt P22411, whole entry: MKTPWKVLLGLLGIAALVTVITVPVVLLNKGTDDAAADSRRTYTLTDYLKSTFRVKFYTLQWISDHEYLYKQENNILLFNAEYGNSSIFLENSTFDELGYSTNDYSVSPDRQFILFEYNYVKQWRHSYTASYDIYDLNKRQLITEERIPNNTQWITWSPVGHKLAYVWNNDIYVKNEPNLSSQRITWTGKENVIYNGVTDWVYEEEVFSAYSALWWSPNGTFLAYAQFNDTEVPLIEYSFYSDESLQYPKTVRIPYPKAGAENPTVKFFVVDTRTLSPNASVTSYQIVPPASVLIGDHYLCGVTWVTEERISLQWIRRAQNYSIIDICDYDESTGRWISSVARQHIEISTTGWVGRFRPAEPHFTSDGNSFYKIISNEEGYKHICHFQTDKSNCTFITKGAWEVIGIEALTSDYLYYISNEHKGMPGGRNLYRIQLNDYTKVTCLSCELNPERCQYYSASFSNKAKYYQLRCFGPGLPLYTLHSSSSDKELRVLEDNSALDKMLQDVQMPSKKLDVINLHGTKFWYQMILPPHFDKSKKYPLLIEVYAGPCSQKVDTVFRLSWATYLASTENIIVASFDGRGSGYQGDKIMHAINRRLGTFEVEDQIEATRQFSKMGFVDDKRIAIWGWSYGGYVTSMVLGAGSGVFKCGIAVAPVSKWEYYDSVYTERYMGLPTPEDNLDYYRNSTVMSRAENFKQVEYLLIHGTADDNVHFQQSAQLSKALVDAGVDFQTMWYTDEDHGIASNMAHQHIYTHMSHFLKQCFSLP

N#C[C@@H]1CS[C@H]2C[C@](N)(CN3CCCCC3)C(=O)N12
IC50: 110 nM

From US7008957B2, “Bicyclic cyanoheterocycles, process for their preparation and their use as medicaments” (Sanofi-Aventis Deutschland GmbH, priority 2003, dated 2006)
